At least one read-out could not be matched to a standard name with certainty.
Test system: survival of cerebral tissue during acute hypoxia
Assay: Acute hypobaric hypoxia in mice, survival time of the brain (final respiratory gasp)
Assay type: in vivo, mice (male CD1)
Conditions: 100 mg/kg I.P., 30 minutes before hypoxia (160 mbar), vs control batch, listed as Ex. 1
Procedure: The compounds of the present invention were tested in respect of their capacity to prolong the survival of cerebral tissue during acute hypoxia in mice, or to maintain the level of tissue energy-rich compounds in rats subjected to a fall in the oxygen supply [Pharmacology of Cerebral Ischemia, ([…]) p. 334-339 Elsevier Science Publishers B.V., J. Krieglstein ed.]. […] Forsch. Drug Res. (1986), 36 II No. 9, p. 1314-1320].
The survival of the brain is assessed by measuring the time at which the final respiratory gasp is observed.
The survival time of a treated batch is compared with that of a control batch receiving only the solvent.

NC(=O)Cc1ccc2c(c1)C(c1ccccc1)C(=O)O2 (stereo not shown) [Example 1, 2-(2,3-Dihydro-2-oxo-3-phenyl-5-benzofuranyl)acetamide]
Percentage increase in the survival time: +170%

Reference: patent US4812469A, “Acetamides derived from 2,3-dihydro-3-phenyl-2-benzofuranone” (Adir Et Cie, priority 1987, dated 1989)
